Results are given in words; binding and its absence hold for the method and conditions named. Binding seen in cells or lysates may run through a third protein. A result given as binding can be weak or reduced; the word gives no strength. Sequences can lack the tags named with a protein. One block for each molecule: values may come before it.
How the values were obtained:
[1] = target: T1, GST-ARM (N-terminal construct of GxcC, base pairs 1-1911), expressed in Dictyostelium (Dictyostelium discoideum) (UniProt Q54P24); assay: pull-down; GST-tagged GxcC constructs (bait) and GFP-RapA^CA (prey) co-expressed in Dictyostelium; lysate in LB buffer (1% Triton X-100, 150 mM NaCl, 10 mM MgCl2, pH 7.2) with GSH beads overnight at 4°C; anti-GFP western blot
T1 sequence: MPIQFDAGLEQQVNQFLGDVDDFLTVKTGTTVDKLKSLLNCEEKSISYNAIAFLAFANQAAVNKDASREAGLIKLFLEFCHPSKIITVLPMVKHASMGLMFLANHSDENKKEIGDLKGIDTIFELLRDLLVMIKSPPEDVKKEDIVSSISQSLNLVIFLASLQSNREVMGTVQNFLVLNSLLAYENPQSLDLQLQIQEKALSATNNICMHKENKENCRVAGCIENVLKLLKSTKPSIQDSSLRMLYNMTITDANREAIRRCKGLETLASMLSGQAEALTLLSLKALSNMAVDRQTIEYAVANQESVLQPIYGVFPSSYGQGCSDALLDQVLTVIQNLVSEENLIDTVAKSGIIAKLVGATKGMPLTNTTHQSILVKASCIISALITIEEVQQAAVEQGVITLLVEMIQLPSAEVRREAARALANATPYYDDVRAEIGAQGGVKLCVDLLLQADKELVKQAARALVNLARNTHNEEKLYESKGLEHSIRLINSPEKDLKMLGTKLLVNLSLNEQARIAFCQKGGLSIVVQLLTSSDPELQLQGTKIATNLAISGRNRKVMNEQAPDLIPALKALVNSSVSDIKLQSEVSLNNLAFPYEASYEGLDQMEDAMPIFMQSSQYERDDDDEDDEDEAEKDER

Protein sequences, listed by entry. Tags and fused reporters are not part of them. Lines headed by an entry give the natural chain unless they say otherwise; changes in a name come on top.
UniProt P18613: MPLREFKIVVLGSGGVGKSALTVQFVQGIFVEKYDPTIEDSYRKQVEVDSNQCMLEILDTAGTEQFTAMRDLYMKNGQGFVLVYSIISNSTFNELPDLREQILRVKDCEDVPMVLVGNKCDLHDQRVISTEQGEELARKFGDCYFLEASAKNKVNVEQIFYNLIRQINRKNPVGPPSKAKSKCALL

[2] = target: T2, GST-GxcC (Dictyostelium discoideum) (UniProt Q54P24); assay: as above
T2 sequence: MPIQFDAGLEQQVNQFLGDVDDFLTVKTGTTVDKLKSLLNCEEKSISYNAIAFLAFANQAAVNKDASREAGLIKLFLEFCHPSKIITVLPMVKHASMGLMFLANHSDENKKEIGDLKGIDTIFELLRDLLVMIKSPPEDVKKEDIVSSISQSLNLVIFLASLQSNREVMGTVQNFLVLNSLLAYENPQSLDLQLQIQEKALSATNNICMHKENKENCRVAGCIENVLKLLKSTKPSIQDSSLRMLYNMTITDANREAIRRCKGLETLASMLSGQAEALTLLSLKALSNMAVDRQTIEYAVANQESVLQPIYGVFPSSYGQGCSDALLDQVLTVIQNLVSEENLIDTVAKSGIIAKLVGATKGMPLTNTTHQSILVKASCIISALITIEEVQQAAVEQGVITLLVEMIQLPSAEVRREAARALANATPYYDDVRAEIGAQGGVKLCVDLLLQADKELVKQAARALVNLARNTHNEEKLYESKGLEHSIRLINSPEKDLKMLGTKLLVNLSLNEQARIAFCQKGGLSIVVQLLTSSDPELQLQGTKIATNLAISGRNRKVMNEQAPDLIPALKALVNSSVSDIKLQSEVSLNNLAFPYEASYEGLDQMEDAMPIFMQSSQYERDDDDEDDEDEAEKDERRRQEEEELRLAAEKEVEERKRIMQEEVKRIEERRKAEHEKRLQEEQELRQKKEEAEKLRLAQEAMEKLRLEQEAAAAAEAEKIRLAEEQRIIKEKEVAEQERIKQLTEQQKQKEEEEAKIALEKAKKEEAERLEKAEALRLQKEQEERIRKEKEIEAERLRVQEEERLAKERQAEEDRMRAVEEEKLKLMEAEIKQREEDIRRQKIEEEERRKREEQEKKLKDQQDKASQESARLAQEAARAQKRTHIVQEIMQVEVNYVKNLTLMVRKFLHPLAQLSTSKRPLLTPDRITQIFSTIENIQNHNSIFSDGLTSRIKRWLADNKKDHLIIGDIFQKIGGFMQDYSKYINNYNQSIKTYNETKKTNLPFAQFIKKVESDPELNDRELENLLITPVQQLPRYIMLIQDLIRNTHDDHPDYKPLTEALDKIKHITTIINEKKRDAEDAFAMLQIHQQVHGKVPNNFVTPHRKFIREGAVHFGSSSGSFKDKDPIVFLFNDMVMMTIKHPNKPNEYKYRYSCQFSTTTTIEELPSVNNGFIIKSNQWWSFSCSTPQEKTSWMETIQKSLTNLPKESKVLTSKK

[3] = target: GST-RacH (Dictyostelium discoideum); assay: pull-down; purified GST-Rac proteins coupled to GSH beads, incubated with pre-cleared lysate of vegetative GFP-GxcC Dictyostelium cells in the presence of EDTA, 4°C for 1 hour; anti-GFP and anti-GST western blot; only the target purified
[4] = target: GST-RacI (Dictyostelium discoideum); assay: as above
[5] = target: GST-RapA^CA (Dictyostelium discoideum) (UniProt P18613); assay: pull-down; GST-RapA^CA, GST-RasC^CA, GST-RasG^CA or GST alone (bait) and GFP-ARM (prey) overexpressed in Dictyostelium; cells in PB or PB with 5 μM Latrunculin A for 10 minutes prior to lysis; GSH beads; anti-GFP western blot

- binding [1]: binds
- binding [2]: binds
Molecule: GFP-RapA^CA (from UniProt P18613)

- binding [3]: binds
- binding [4]: binds
B1: GFP-GxcC (protein, UniProt Q54P24 1-1215)
chain: T2 sequence

- binding [5]: binds
B2: GFP-ARM (N-terminal construct of GxcC, base pairs 1-1911) (domain or fragment, UniProt Q54P24 1-637)
chain: T1 sequence

Source: publication PMC3675359, “GxcC connects Rap and Rac signaling during Dictyostelium development” (BMC Cell Biology, 2013)
